# Data from publication doi:10.1101/2025.05.15.654345.
# Amino acid sequences for entries named in this document (tags omitted).
# UniProt P03407: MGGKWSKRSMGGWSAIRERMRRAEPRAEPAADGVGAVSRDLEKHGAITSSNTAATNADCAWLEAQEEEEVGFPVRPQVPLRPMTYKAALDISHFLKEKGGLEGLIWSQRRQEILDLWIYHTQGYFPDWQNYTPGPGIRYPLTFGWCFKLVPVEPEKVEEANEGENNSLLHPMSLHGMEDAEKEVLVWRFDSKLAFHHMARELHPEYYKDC
# Results are given in words; binding and its absence hold for the method and conditions named. Binding seen in cells or lysates may run through a third protein. Some results given as binding are weak or reduced against the parent protein; the word gives no strength.
# How the values were obtained:
# [1] = biological target: IFITM3, FLAG-tagged copy and Myc-tagged copy (human) (UniProt Q01628); test: co-IP; anti-FLAG (M2) antibody added to 100 μg whole cell lysate of HEK293T co-transfected with IFITM3-FLAG and IFITM3-Myc, alone or with 97ZA Nef-HA; Dynabeads Protein G; immunoblot with anti-FLAG and anti-Myc
# [2] = biological target: SF2 Nef-HA (HIV-1 (molecular clone SF2)) (UniProt P03407); test: co-IP; anti-HA antibody added to 100 μg whole cell lysate of co-transfected HEK293T (20 mM HEPES, 150 mM NaCl, 1 mM EDTA, 1% Triton X-100), 1 hour at 4°C, Dynabeads Protein G, three washes with lysis buffer; immunoblot with anti-HA and anti-IFITM3
# [3] = biological target: LAI Nef-HA (HIV-1 (molecular clone LAI)) (UniProt P03406); test: as above
Substance,binding [1],binding [2],binding [3]
"IFITM3, FLAG-tagged copy and Myc-tagged copy (from UniProt Q01628 1-133)",binds,–,–
human IFITM3 (untagged; interferon-induced transmembrane protein 3) (from UniProt Q01628 1-133),–,binds,binds
